For one substance, binding results are on record in doi:10.1101/2024.06.27.601040 (bioRxiv, 2024).

The chains behind the UniProt entries cited, without tags or fusion partners.
UniProt Q14764: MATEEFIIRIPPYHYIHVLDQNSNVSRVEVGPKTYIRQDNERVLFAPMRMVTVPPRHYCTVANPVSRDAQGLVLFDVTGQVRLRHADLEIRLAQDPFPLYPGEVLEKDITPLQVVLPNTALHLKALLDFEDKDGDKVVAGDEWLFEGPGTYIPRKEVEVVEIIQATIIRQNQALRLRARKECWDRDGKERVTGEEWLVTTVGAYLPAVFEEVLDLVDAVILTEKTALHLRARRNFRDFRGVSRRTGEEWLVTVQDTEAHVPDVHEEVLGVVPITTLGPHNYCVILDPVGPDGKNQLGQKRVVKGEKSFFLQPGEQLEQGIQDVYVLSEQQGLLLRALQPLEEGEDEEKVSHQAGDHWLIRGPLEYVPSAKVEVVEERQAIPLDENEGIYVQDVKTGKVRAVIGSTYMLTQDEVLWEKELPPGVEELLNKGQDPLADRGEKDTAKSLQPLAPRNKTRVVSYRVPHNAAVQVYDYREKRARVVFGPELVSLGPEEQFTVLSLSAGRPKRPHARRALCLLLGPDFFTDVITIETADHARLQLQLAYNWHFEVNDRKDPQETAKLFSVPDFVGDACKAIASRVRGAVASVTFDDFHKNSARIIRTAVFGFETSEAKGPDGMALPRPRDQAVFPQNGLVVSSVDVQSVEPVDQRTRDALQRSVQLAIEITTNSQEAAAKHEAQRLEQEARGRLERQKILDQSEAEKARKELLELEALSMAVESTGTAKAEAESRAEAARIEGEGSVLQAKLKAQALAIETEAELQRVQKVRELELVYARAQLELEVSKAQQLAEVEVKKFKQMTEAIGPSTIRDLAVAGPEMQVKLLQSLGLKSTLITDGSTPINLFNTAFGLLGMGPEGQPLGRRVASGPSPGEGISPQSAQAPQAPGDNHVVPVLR
UniProt Q9UKK3: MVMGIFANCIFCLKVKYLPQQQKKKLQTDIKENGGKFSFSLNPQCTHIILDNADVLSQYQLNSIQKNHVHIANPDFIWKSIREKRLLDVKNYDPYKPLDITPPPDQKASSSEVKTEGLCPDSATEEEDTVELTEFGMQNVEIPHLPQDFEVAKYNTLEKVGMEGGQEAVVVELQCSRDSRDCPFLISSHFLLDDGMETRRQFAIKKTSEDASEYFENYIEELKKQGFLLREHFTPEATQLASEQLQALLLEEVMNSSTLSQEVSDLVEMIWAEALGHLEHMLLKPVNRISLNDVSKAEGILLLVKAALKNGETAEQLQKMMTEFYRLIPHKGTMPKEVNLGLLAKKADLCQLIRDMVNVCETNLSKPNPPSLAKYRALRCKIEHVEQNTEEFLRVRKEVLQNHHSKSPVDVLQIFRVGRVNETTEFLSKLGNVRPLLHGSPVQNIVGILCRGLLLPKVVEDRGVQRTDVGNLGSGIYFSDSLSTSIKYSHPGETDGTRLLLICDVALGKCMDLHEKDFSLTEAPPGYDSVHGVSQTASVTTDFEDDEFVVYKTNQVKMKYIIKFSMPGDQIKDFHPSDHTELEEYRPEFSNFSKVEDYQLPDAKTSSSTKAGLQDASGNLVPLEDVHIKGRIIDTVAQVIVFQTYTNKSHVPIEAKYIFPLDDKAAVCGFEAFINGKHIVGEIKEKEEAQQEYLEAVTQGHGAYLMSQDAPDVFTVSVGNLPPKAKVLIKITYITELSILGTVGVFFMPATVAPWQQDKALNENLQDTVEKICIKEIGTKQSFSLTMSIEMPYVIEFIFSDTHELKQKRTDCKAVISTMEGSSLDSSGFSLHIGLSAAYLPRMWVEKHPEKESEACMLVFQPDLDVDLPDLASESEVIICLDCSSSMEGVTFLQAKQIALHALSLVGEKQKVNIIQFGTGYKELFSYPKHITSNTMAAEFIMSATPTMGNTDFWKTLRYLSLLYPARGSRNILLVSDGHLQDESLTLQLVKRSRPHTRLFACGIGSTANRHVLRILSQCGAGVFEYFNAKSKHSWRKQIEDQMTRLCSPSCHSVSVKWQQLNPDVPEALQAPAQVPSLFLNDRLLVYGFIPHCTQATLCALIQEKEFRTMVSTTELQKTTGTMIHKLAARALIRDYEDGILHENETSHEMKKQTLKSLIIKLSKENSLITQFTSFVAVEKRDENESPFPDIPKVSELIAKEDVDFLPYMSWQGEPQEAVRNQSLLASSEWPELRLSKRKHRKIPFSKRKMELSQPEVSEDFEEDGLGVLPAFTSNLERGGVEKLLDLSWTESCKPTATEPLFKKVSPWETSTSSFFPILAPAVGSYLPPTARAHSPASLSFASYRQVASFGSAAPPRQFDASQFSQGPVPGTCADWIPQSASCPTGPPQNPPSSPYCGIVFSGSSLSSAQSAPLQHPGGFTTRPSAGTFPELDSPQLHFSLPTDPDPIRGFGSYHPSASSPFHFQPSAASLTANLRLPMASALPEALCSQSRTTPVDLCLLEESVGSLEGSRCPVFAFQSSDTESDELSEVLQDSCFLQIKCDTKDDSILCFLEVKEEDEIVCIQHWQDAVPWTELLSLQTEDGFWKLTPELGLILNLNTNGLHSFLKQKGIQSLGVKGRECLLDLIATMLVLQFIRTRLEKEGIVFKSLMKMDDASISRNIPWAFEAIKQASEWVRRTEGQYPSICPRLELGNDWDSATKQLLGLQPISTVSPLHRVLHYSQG

The assay has as its target endogenous MVP (native vault) of A549 cells (human (endogenous in A549)) (UniProt Q14764). Briefly: co-IP.

These are yes or no findings as the source states them, for the method shown. In cells and extracts the contact can be indirect. Some binding calls cover weakened binding; strength is not graded here.

For “endogenous PARP4 of A549 cells (from UniProt Q9UKK3 1-1724) (enzyme)”, the binding result is reported as “binds”.
